From publication PMC12674617
No constants are given. Whether binding was seen depends on the method and setting. In cells and extracts the contact can be indirect. Some entries that bind do so weakly or less than the wild type.

By UniProt entry, the sequences of proteins in these tests, tags left out.
UniProt Q8TD16: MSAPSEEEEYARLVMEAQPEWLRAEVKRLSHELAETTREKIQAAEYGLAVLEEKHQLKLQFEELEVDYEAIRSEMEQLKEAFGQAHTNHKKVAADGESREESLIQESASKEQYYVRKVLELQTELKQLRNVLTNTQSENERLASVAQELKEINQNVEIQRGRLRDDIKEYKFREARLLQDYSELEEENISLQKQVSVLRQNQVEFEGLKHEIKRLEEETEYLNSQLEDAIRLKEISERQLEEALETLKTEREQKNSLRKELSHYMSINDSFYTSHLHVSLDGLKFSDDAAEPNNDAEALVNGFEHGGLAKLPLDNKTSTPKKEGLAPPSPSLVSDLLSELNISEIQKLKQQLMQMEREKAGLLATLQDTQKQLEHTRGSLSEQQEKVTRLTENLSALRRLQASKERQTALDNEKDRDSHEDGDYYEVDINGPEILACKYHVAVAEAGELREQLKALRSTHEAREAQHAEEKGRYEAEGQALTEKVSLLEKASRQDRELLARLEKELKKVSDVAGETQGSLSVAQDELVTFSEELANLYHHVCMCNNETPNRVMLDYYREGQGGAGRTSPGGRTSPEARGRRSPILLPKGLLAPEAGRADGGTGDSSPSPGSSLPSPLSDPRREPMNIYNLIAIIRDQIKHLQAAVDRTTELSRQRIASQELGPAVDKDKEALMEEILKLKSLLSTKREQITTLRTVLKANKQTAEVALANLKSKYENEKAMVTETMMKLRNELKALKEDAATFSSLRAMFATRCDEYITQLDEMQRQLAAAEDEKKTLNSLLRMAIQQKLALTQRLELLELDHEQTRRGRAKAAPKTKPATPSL

B1: VPS41 (protein, UniProt P49754 1-854)
chain: MAEAEEQETGSLEESTDESEEEESEEEPKLKYERLSNGVTEILQKDAASCMTVHDKFLALGTHYGKVYLLDVQGNITQKFDVSPVKINQISLDESGEHMGVCSEDGKVQVFGLYSGEEFHETFDCPIKIIAVHPHFVRSSCKQFVTGGKKLLLFERSWMNRWKSAVLHEGEGNIRSVKWRGHLIAWANNMGVKIFDIISKQRITNVPRDDISLRPDMYPCSLCWKDNVTLIIGWGTSVKVCSVKERHASEMRDLPSRYVEIVSQFETEFYISGLAPLCDQLVVLSYVKEISEKTEREYCARPRLDIIQPLSETCEEISSDALTVRGFQENECRDYHLEYSEGESLFYIVSPRDVVVAKERDQDDHIDWLLEKKKYEEALMAAEISQKNIKRHKILDIGLAYINHLVERGDYDIAARKCQKILGKNAALWEYEVYKFKEIGQLKAISPYLPRGDPVLKPLIYEMILHEFLESDYEGFATLIREWPGDLYNNSVIVQAVRDHLKKDSQNKTLLKTLAELYTYDKNYGNALEIYLTLRHKDVFQLIHKHNLFSSIKDKIVLLMDFDSEKAVDMLLDNEDKISIKKVVEELEDRPELQHVYLHKLFKRDHHKGQRYHEKQISLYAEYDRPNLLPFLRDSTHCPLEKALEICQQRNFVEETVYLLSRMGNSRSALKMIMEELHDVDKAIEFAKEQDDGELWEDLILYSIDKPPFITGLLNNIGTHVDPILLIHRIKEGMEIPNLRDSLVKILQDYNLQILLREGCKKILVADSLSLLKKMHRTQMKGVLVDEENICESCLSPILPSDAAKPFSVVVFHCRHMFHKECLPMPSMNSAAQFCNICSAKNRGPGSAILEMKK
B2: VPS18 (protein, UniProt Q9P253 1-973)
chain: MASILDEYENSLSRSAVLQPGCPSVGIPHSGYVNAQLEKEVPIFTKQRIDFTPSERITSLVVSSNQLCMSLGKDTLLRIDLGKANEPNHVELGRKDDAKVHKMFLDHTGSHLLIALSSTEVLYVNRNGQKVRPLARWKGQLVESVGWNKALGTESSTGPILVGTAQGHIFEAELSASEGGLFGPAPDLYFRPLYVLNEEGGPAPVCSLEAERGPDGRSFVIATTRQRLFQFIGRAAEGAEAQGFSGLFAAYTDHPPPFREFPSNLGYSELAFYTPKLRSAPRAFAWMMGDGVLYGALDCGRPDSLLSEERVWEYPEGVGPGASPPLAIVLTQFHFLLLLADRVEAVCTLTGQVVLRDHFLEKFGPLKHMVKDSSTGQLWAYTERAVFRYHVQREARDVWRTYLDMNRFDLAKEYCRERPDCLDTVLAREADFCFRQRRYLESARCYALTQSYFEEIALKFLEARQEEALAEFLQRKLASLKPAERTQATLLTTWLTELYLSRLGALQGDPEALTLYRETKECFRTFLSSPRHKEWLFASRASIHELLASHGDTEHMVYFAVIMQDYERVVAYHCQHEAYEEALAVLARHRDPQLFYKFSPILIRHIPRQLVDAWIEMGSRLDARQLIPALVNYSQGGEVQQVSQAIRYMEFCVNVLGETEQAIHNYLLSLYARGRPDSLLAYLEQAGASPHRVHYDLKYALRLCAEHGHHRACVHVYKVLELYEEAVDLALQVDVDLAKQCADLPEEDEELRKKLWLKIARHVVQEEEDVQTAMACLASCPLLKIEDVLPFFPDFVTIDHFKEAICSSLKAYNHHIQELQREMEEATASAQRIRRDLQELRGRYGTVEPQDKCATCDFPLLNRPFYLFLCGHMFHADCLLQAVRPGLPAYKQARLEELQRKLGAAPPPAKGSARAKEAEGGAATAGPSREQLKADLDELVAAECVYCGELMIRSIDRPFIDPQRYEEEQLSWL
B3: VPS16 (protein, UniProt Q9H269 1-839)
chain: MDCYTANWNPLGDSAFYRKYELYSMDWDLKEELRDCLVAAAPYGGPIALLRNPWRKEKAASVRPVLDIYSASGMPLASLLWKSGPVVSLGWSAEEELLCVQEDGAVLVYGLHGDFRRHFSMGNEVLQNRVLDARIFHTEFGSGVAILTGAHRFTLSANVGDLKLRRMPEVPGLQSAPSCWTVLCQDRVAHILLAVGPDLYLLDHAACSAVTPPGLAPGVSSFLQMAVSFTYRHLALFTDTGYIWMGTASLKEKLCEFNCNIRAPPKQMVWCSRPRSKERAVVVAWERRLMVVGDAPESIQFVLDEDSYLVPELDGVRIFSRSTHEFLHEVPAASEEIFKIASMAPGALLLEAQKEYEKESQKADEYLREIQELGQLTQAVQQCIEAAGHEHQPDMQKSLLRAASFGKCFLDRFPPDSFVHMCQDLRVLNAVRDYHIGIPLTYSQYKQLTIQVLLDRLVLRRLYPLAIQICEYLRLPEVQGVSRILAHWACYKVQQKDVSDEDVARAINQKLGDTPGVSYSDIAARAYGCGRTELAIKLLEYEPRSGEQVPLLLKMKRSKLALSKAIESGDTDLVFTVLLHLKNELNRGDFFMTLRNQPMALSLYRQFCKHQELETLKDLYNQDDNHQELGSFHIRASYAAEERIEGRVAALQTAADAFYKAKNEFAAKATEDQMRLLRLQRRLEDELGGQFLDLSLHDTVTTLILGGHNKRAEQLARDFRIPDKRLWWLKLTALADLEDWEELEKFSKSKKSPIGYLPFVEICMKQHNKYEAKKYASRVGPEQKVKALLLVGDVAQAADVAIEHRNEAELSLVLSHCTGATDGATADKIQRARAQAQKK

Each binder was assayed against full-length BICD2 tagged on the C-terminus with mini-TurboID (BICD2-mTrbo) (human) (UniProt Q8TD16) (assay: co-IP; HEK293 FLP-in T-Rex cells, Tet induction 1 µg/ml 24 hr; lysate in RIPA buffer, 1 mg protein, V5-Trap agarose beads 2 hr at 4 °C, four RIPA washes, western blot; also in cells treated with siRNA to endogenous BICD2).
With B1 the binding was “binds”.
With B2 the binding was “binds”.
In the case of B3, the binding is reported as “binds”.
